# From the supplement of paper PMC9744312
# Counter-ions that a name gives are not always drawn. The list shows a part of the results. Single values of this set are uncertain.
# Test system: Peyronie's disease tunica albuginea primary fibroblasts
# Test: cell viability (DRAQ5 nuclear stain) relative to TGF-beta1-only control; higher = more viable cells
# Conditions: 10 µM; TGF-beta1 10 ng/mL; 72 h
row,Compound,cell viability
1,Clc1ccccc1C(c1ccccc1)(c1ccccc1)n1ccnc1 [Clotrimazole],95.2%
2,CCC(=O)NC[C@@H]1C[C@H]1c1cccc2c1CCO2 [Tasimelteon],49.5%
3,Clc1ccc(COC(Cn2ccnc2)c2ccc(Cl)cc2Cl)cc1 (centres undefined) [Econazole],81.9%
4,Clc1ccc(COC(Cn2ccnc2)c2ccc(Cl)cc2Cl)cc1 (centres undefined) [Econazole nitrate],82.2%
5,CCCC(C(=O)OCCN(CC)CC)(c1ccccc1)c1ccccc1 [Proadifen HCl],87.6%
6,CO[C@H]1C(=O)[C@]2(C)[C@@H](OC)C[C@H]3OC[C@@]3(OC(C)=O)[C@H]2[C@H](OC(=O)c2ccccc2)[C@]2(O)C[C@H](OC(=O)[C@H](O)[C@@H](NC(=O)OC(C)(C)C)c3ccccc3)C(C)=C1C2(C)C [Cabazitaxel],70.1%
7,O=S(=O)(O)CCSSCCS(=O)(=O)O [Dimesna],70%
8,CN1CCC[C@H]1c1cccnc1 [Nicotine Ditartrate],85.9%
9,O=P(O)(O)C(O)(Cc1cccnc1)P(=O)(O)O [Risedronate Sodium],109%
10,CCN(CC)C(=O)N1CCN(C)CC1 [Diethylcarbamazine citrate],89%
11,O=C(O)c1cc(O)c(O)c(O)c1 [Gallic acid],98.8%
12,Nc1cc(N2CCCCC2)nc(N)[n+]1OS(=O)(=O)[O-] [Minoxidil sulphate],81.9%
13,CC(C)(C)C(O)/C=C/c1ccc2c(c1)OCO2 (centres undefined) [Stiripentol],88.1%
14,CCc1cc(/C(C)=N/OCc2ccc(C3CCCCC3)c(C(F)(F)F)c2)ccc1CN1CC(C(=O)O)C1 [BAF312 (Siponimod)],85.7%
15,CC[C@]1(O)C[C@@H]2CN(CCc3c([nH]c4ccccc34)[C@@](C(=O)OC)(c3cc4c(cc3OC)N(C)[C@H]3[C@@](O)(C(=O)OC)[C@H](OC(C)=O)[C@]5(CC)C=CCN6CC[C@]43[C@@H]65)C2)C1 [Vinblastine sulfate],52%
16,COc1cc2c(cc1OC)CN(CCc1ccc(NC(=O)c3cccc4c(=O)c5cccc(OC)c5[nH]c34)cc1)CC2,103%
17,CC(CCc1ccc(O)cc1)NCC(O)c1ccc(O)cc1 (centres undefined) [Ractopamine HCl],94%
18,CCN(CCCc1ccccc1)CCCc1ccccc1 [Alverine Citrate],87.8%
19,Cc1c(C)c2c(c(C)c1O)CC[C@@](C)(CCC[C@H](C)CCC[C@H](C)CCCC(C)C)O2 [Vitamin E],66.6%
20,CCC(=O)NCC[C@@H]1CCc2ccc3c(c21)CCO3 [Ramelteon],90.4%
21,COC1=CC(=O)C[C@@H](C)[C@]12Oc1c(Cl)c(OC)cc(OC)c1C2=O [Griseofulvin],83.4%
22,O[C@@H](COc1cccc2ncccc12)CN1CCN(C2c3ccccc3[C@@H]3[C@H](c4ccccc42)C3(F)F)CC1 (some centres undefined),85.4%
23,NS(=O)(=O)NCCNc1nonc1/C(=N/O)Nc1ccc(F)c(Br)c1,84.1%
24,OCC(O)CN1CCN(c2ccccc2)CC1 (centres undefined) [Dropropizine],102%
25,COc1cc(N)c(Cl)cc1C(=O)NC1CCN(CCCOc2ccc(F)cc2)CC1OC (centres undefined) [Cisapride hydrate],85.8%

# Exported as tab-separated lines: entries from further up.
row	Compound	cell viability
7	O=S(=O)(O)CCSSCCS(=O)(=O)O [Dimesna]	70%
9	O=P(O)(O)C(O)(Cc1cccnc1)P(=O)(O)O [Risedronate Sodium]	109%
10	CCN(CC)C(=O)N1CCN(C)CC1 [Diethylcarbamazine citrate]	89%
22	O[C@@H](COc1cccc2ncccc12)CN1CCN(C2c3ccccc3[C@@H]3[C@H](c4ccccc42)C3(F)F)CC1 (some centres undefined)	85.4%

# Remaining list, next part.

row,Compound,cell viability
1,COc1cc(N)c(Cl)cc1C(=O)NC1CCN(CCCOc2ccc(F)cc2)CC1OC (centres undefined) [Cisapride],94.8%
2,CN(C)CCC(c1ccc(Cl)cc1)c1ccccn1 (centres undefined) [Chlorpheniramine Maleate],87.7%
3,CCCC(CCC)C(=O)O [Valproic acid sodium salt (Sodium valproate)],61.3%
4,CCCC(CCC)C(=O)O [Divalproex Sodium],86.7%
5,CCCC(CCC)C(=O)O [Valproic acid],80.6%
6,CN(C)[C@@H](CCOc1cccc2ccccc12)c1ccccc1 [Dapoxetine HCl],91.3%
7,Cc1onc(-c2ccccc2)c1C(=O)N[C@@H]1C(=O)N2[C@@H]1SC(C)(C)[C@@H]2C(=O)O [Oxacillin sodium monohydrate],91.6%
8,Cc1nccn1CCC(C(N)=O)(c1ccccc1)c1ccccc1 [Imidafenacin],88.5%
9,Cc1c(OCC(F)(F)F)ccnc1C[S+]([O-])c1nc2ccccc2[nH]1 (centres undefined) [Lansoprazole],83.2%
10,O=C([O-])C(O)[C@H](O)[C@@H](O)[C@H](O)[C@H](O)CO.O=C([O-])C(O)[C@H](O)[C@@H](O)[C@H](O)[C@H](O)CO.[Ca+2] (some centres undefined) [Calcium Gluceptate],93.4%
11,COc1ccc2cc1Oc1ccc(cc1)C[C@H]1c3c(cc4c(c3Oc3cc5c(cc3OC)CCN(C)[C@@H]5C2)OCO4)CCN1C [Cepharanthine],103%
12,O=C(O[C@@H]1C[C@@H]2C[C@H]3C[C@H](C1)N2CC3=O)c1c[nH]c2ccccc12 [Dolasetron],82.6%
13,COC(=O)Nc1nc2cc(C(=O)c3ccc(F)cc3)ccc2[nH]1 [Flubendazole],87.7%
14,CCOC(=O)c1ccc(O)cc1 [Ethylparaben],93.6%
15,CC(=O)O[C@H]1Cc2ccccc2N(C(N)=O)c2ccccc21 [Eslicarbazepine Acetate],90.8%
16,CC1CCc2cc(F)cc3c(=O)c(C(=O)O)cn1c23 (centres undefined) [Flumequine],98%
17,CCCCOc1ccc(OCCCN2CCOCC2)cc1 [Pramoxine HCl],89.3%
18,C[C@@H](O)[C@H]1C(=O)N2C(C(=O)OCOC(=O)C(C)(C)C)=C(SC3CN(C4=NCCS4)C3)[C@H](C)[C@H]12 [Tebipenem Pivoxil],81.3%
19,C1CNCCNCCNCCN1 [Cyclen],91.7%
20,COc1ccc(-n2nc(C(N)=O)c3c2C(=O)N(c2ccc(N4CCCCC4=O)cc2)CC3)cc1 [Apixaban],99%
21,CC(C)[C@H]1CC[C@H](C(=O)N[C@H](Cc2ccccc2)C(=O)O)CC1 [Nateglinide],85.2%
22,CC(C)c1nc(CN(C)C(=O)N[C@H](C(=O)N[C@@H](Cc2ccccc2)C[C@H](O)[C@H](Cc2ccccc2)NC(=O)OCc2cncs2)C(C)C)cs1 [Ritonavir],77.5%
23,COc1ccccc1OCCNCC(O)COc1cccc2[nH]c3ccccc3c12 (centres undefined) [Carvedilol],81.1%
24,COc1ccccc1OCCNCC(O)COc1cccc2[nH]c3ccccc3c12 (centres undefined) [Carvedilol Phosphate],70.3%
